{"sequences": {"note": "Protein sequences, listed by entry. Tags and fused reporters are not part of them.", "UniProt P52480": "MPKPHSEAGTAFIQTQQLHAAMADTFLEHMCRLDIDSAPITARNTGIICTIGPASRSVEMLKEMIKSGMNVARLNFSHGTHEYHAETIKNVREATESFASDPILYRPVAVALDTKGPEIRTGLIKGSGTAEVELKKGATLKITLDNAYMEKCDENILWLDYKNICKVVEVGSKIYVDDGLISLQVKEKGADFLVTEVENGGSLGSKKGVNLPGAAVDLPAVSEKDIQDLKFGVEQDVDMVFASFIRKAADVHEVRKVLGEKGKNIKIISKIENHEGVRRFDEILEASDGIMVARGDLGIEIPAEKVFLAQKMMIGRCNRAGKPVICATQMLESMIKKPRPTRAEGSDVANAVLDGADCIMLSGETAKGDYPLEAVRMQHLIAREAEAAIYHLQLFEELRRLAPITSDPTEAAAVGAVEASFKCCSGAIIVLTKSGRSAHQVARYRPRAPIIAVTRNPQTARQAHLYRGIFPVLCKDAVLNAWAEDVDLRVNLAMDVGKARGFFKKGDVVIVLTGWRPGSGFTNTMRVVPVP"}, "source": "paper PMC11299418", "target": "T1, cluster of differentiation 74 (CD74) (mouse (endogenous in peritoneal macrophages)) (UniProt P04441)", "T1 sequence": "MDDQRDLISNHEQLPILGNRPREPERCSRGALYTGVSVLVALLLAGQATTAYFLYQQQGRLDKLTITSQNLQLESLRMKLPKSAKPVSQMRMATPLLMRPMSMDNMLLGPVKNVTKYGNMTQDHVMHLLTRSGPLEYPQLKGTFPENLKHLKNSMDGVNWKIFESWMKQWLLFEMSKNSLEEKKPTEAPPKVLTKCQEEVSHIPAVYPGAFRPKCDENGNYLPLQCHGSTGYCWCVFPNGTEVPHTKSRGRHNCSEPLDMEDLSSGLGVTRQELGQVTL", "assay": "co-IP; endogenous proteins in peritoneal macrophages; which protein was precipitated is not told", "note": "No constants are given. Whether binding was seen depends on the method and setting. In cells and extracts the contact can be indirect. Some results given as binding are weak or reduced against the parent protein; the word gives no strength.", "data": [{"substance": "pyruvate kinase M2 (PKM2) (from UniProt P52480 1-531) (enzyme)", "values": [{"measurement": "binding", "value": "binds"}]}]}
